For three molecules, binding results are on record in article PMC8627510.

In assay [1] the target is T1, Myc-tagged TAK1 (transforming growth factor β-activated kinase 1) (UniProt Q62073).
T1 sequence: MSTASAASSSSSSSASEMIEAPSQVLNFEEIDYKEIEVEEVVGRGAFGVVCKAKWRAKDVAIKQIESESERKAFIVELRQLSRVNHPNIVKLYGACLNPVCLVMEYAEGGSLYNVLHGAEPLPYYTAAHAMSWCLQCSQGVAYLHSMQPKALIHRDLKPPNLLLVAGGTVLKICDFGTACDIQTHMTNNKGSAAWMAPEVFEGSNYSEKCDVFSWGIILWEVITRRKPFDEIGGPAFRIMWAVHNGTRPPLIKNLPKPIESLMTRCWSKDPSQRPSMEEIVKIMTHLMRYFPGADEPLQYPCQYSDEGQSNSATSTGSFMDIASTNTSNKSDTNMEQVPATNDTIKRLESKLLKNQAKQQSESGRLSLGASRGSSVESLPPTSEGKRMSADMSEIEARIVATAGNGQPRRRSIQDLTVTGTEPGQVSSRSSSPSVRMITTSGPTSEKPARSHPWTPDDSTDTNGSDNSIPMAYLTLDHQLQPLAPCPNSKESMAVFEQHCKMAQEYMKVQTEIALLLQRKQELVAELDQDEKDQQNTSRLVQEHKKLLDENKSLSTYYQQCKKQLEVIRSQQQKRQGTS
Nature of the assay: co-IP; HEK293T expressing one tagged protein (Myc-TAK1 or Flag-USP8), the partner endogenous; whole cell lysate in 20 mM Tris HCl pH 8, 137 mM NaCl, 1% Nonidet P-40, 2 mM EDTA; anti-Myc or anti-Flag antibody, protein A Sepharose, 4 °C; western blot.

The target in assay [2] is T2, Flag-tagged USP8 (ubiquitin-specific peptidase 8) (UniProt Q80U87).
T2 sequence: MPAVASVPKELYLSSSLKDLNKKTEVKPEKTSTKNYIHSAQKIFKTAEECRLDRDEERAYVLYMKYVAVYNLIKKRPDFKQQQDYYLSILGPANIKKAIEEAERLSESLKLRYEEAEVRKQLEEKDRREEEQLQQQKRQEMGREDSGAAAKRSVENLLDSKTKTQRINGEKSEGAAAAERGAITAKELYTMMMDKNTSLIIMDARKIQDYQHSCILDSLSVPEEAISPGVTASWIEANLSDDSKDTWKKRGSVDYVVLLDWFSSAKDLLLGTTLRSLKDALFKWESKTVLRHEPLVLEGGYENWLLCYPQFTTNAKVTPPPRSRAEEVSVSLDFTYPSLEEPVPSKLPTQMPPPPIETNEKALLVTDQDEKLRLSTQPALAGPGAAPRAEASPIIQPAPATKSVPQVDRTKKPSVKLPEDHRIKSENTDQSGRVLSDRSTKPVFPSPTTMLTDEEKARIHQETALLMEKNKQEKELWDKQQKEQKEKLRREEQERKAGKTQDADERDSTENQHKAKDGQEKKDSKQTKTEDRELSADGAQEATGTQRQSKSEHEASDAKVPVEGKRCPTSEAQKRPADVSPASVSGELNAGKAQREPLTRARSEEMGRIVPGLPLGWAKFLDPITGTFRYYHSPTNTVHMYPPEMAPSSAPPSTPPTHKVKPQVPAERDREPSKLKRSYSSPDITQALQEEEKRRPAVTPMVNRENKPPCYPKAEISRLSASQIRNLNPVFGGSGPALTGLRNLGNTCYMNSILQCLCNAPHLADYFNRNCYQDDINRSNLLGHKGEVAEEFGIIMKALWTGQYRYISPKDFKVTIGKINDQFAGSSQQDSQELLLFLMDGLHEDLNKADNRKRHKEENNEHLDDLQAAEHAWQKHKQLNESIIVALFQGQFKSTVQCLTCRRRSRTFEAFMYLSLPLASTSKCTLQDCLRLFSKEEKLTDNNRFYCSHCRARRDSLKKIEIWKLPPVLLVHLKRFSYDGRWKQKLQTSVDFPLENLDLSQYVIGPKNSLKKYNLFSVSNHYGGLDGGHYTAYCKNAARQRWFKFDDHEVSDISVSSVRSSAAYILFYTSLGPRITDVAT
Described as above.

Assay [3] addresses T1, Myc-tagged TAK1 (transforming growth factor β-activated kinase 1). Nature of the assay: co-IP; HEK293T co-transfected with Myc-tagged TAK1 and Flag-tagged USP8; whole cell lysate in 20 mM Tris HCl pH 8, 137 mM NaCl, 1% Nonidet P-40, 2 mM EDTA; anti-Myc or anti-Flag antibody or rabbit IgG, protein A Sepharose, 4 °C; western blot.

Results are given in words; binding and its absence hold for the method and conditions named. Binding seen in cells or lysates may run through a third protein. Some binding calls cover weakened binding; strength is not graded here. Tags and fused reporters may be left off the sequences shown.

B1: endogenous USP8 (enzyme, UniProt P40818 1-1118)
chain: MPAVASVPKELYLSSSLKDLNKKTEVKPEKISTKSYVHSALKIFKTAEECRLDRDEERAYVLYMKYVTVYNLIKKRPDFKQQQDYFHSILGPGNIKKAVEEAERLSESLKLRYEEAEVRKKLEEKDRQEEAQRLQQKRQETGREDGGTLAKGSLENVLDSKDKTQKSNGEKNEKCETKEKGAITAKELYTMMTDKNISLIIMDARRMQDYQDSCILHSLSVPEEAISPGVTASWIEAHLPDDSKDTWKKRGNVEYVVLLDWFSSAKDLQIGTTLRSLKDALFKWESKTVLRNEPLVLEGGYENWLLCYPQYTTNAKVTPPPRRQNEEVSISLDFTYPSLEESIPSKPAAQTPPASIEVDENIELISGQNERMGPLNISTPVEPVAASKSDVSPIIQPVPSIKNVPQIDRTKKPAVKLPEEHRIKSESTNHEQQSPQSGKVIPDRSTKPVVFSPTLMLTDEEKARIHAETALLMEKNKQEKELRERQQEEQKEKLRKEEQEQKAKKKQEAEENEITEKQQKAKEEMEKKESEQAKKEDKETSAKRGKEITGVKRQSKSEHETSDAKKSVEDRGKRCPTPEIQKKSTGDVPHTSVTGDSGSGKPFKIKGQPESGILRTGTFREDTDDTERNKAQREPLTRARSEEMGRIVPGLPSGWAKFLDPITGTFRYYHSPTNTVHMYPPEMAPSSAPPSTPPTHKAKPQIPAERDREPSKLKRSYSSPDITQAIQEEEKRKPTVTPTVNRENKPTCYPKAEISRLSASQIRNLNPVFGGSGPALTGLRNLGNTCYMNSILQCLCNAPHLADYFNRNCYQDDINRSNLLGHKGEVAEEFGIIMKALWTGQYRYISPKDFKITIGKINDQFAGYSQQDSQELLLFLMDGLHEDLNKADNRKRYKEENNDHLDDFKAAEHAWQKHKQLNESIIVALFQGQFKSTVQCLTCHKKSRTFEAFMYLSLPLASTSKCTLQDCLRLFSKEEKLTDNNRFYCSHCRARRDSLKKIEIWKLPPVLLVHLKRFSYDGRWKQKLQTSVDFPLENLDLSQYVIGPKNNLKKYNLFSVSNHYGGLDGGHYTAYCKNAARQRWFKFDDHEVSDISVSSVKSSAAYILFYTSLGPRVTDVAT
As for B1, the binding entry in assay [1] is “binds”.

B2: endogenous TAK1 (enzyme, UniProt O43318 1-606)
chain: MSTASAASSSSSSSAGEMIEAPSQVLNFEEIDYKEIEVEEVVGRGAFGVVCKAKWRAKDVAIKQIESESERKAFIVELRQLSRVNHPNIVKLYGACLNPVCLVMEYAEGGSLYNVLHGAEPLPYYTAAHAMSWCLQCSQGVAYLHSMQPKALIHRDLKPPNLLLVAGGTVLKICDFGTACDIQTHMTNNKGSAAWMAPEVFEGSNYSEKCDVFSWGIILWEVITRRKPFDEIGGPAFRIMWAVHNGTRPPLIKNLPKPIESLMTRCWSKDPSQRPSMEEIVKIMTHLMRYFPGADEPLQYPCQYSDEGQSNSATSTGSFMDIASTNTSNKSDTNMEQVPATNDTIKRLESKLLKNQAKQQSESGRLSLGASRGSSVESLPPTSEGKRMSADMSEIEARIAATTAYSKPKRGHRKTASFGNILDVPEIVISGNGQPRRRSIQDLTVTGTEPGQVSSRSSSPSVRMITTSGPTSEKPTRSHPWTPDDSTDTNGSDNSIPMAYLTLDHQLQPLAPCPNSKESMAVFEQHCKMAQEYMKVQTEIALLLQRKQELVAELDQDEKDQQNTSRLVQEHKKLLDENKSLSTYYQQCKKQLEVIRSQQQKRQGTS
B2: the binding result in assay [2] is given as “binds”.

B3: Flag-tagged USP8 (ubiquitin-specific peptidase 8) (enzyme, UniProt Q80U87 1-1080)
chain: T2 sequence
Consider B3, for which the binding result in assay [3] is on record as “binds”.
